PubChem BioAssay AID652243 | Drosophila RNAi Screening Center | 2013

Screen: 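Knock-downs that decrease or increase androgen receptor reporter signal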 (primary screen)
Cell system: Drosophila S2R+ cells
Knock-down reagent: long dsRNA against Drosophila genes
Time to read-out: 72 h (48 h, then 24 h hormone)
Challenge: synthetic androgen R1881 at 10 nM for 24 h
Measurement: 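Per-well raw luminescence of the androgen-driven firefly reporter and of the Renilla control, two replicates each, without normalisation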
Scale: firefly reporter light: higher = more light from androgen-responsive reporter; Renilla control light: higher = more constitutive control signal (cell number, transfection)
Call rule: 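Hit when the log firefly-to-Renilla ratio dropped or increased by a fixed fold versus the mean of GFP or LacZ controls across duplicate plates; lowering cut given as 1.5 and as 3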
Meaning of the calls: active = hit: reporter lowered or raised; inactive = no hit
In all, the deposit lists about 24,000 reagents; shown is an unselected part of those with a known target gene and a result. Over the whole deposit, 246 (1%) were called active. 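Plates not normalised; calls are printed but the firefly/Renilla ratio behind them is not deposited; fold cut for lowering reported inconsistently.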 The raw values are shown without normalisation. A number with no mark means an inactive call. A plus sign joins genes that one reagent is predicted to hit. Not given: the amount of reagent.

With knock-down of Coq7 + shf [DRSC18448], the screen gave firefly reporter light, replicate 1 = 1.24e5; firefly reporter light, replicate 2 = 1.96e5; Renilla control light, replicate 1 = 2.49e6; Renilla control light, replicate 2 = 2.49e6. With knock-down of CG11251 [DRSC09825], the record shows firefly reporter light, replicate 1 = 1.44e5; firefly reporter light, replicate 2 = 1.64e5; Renilla control light, replicate 1 = 1.47e6; Renilla control light, replicate 2 = 1.24e6. After knock-down of Tcs4 [DRSC19587], the record shows firefly reporter light, replicate 1 = 1.35e5; firefly reporter light, replicate 2 = 61283; Renilla control light, replicate 1 = 8.88e5; Renilla control light, replicate 2 = 8.59e5. After knock-down of Tcs4 [DRSC28855] the results were firefly reporter light, replicate 1 = 4.27e5; firefly reporter light, replicate 2 = 2.80e5; Renilla control light, replicate 1 = 9.86e5; Renilla control light, replicate 2 = 7.39e5. Against CG11149 [DRSC02130] the deposit lists firefly reporter light, replicate 1 = 1.07e5; firefly reporter light, replicate 2 = 1.93e5; Renilla control light, replicate 1 = 7.99e5; Renilla control light, replicate 2 = 7.24e5. CG14079 [DRSC10083] scored firefly reporter light, replicate 1 = 1.85e5; firefly reporter light, replicate 2 = 1.40e5; Renilla control light, replicate 1 = 2.23e6; Renilla control light, replicate 2 = 1.63e6.

For grnd [DRSC02020] the deposit lists firefly reporter light, replicate 1 = 1.68e5; firefly reporter light, replicate 2 = 1.08e5; Renilla control light, replicate 1 = 1.45e6; Renilla control light, replicate 2 = 8.05e5. Against Lgr3 [DRSC15704], the entry reads firefly reporter light, replicate 1 = 1.29e5; firefly reporter light, replicate 2 = 1.91e5; Renilla control light, replicate 1 = 1.90e6; Renilla control light, replicate 2 = 1.92e6. With knock-down of Lgr3 [DRSC15706] the results were firefly reporter light, replicate 1 = 1.41e5; firefly reporter light, replicate 2 = 1.37e5; Renilla control light, replicate 1 = 1.84e6; Renilla control light, replicate 2 = 1.21e6. For CG11975 [DRSC14452], the entry reads firefly reporter light, replicate 1 = 63774; firefly reporter light, replicate 2 = 60695; Renilla control light, replicate 1 = 3.46e5; Renilla control light, replicate 2 = 3.24e5. Knock-down of CG6287 [DRSC02947] resulted in: firefly reporter light, replicate 1 = 9.81e5; firefly reporter light, replicate 2 = 8.70e5; Renilla control light, replicate 1 = 1.91e6; Renilla control light, replicate 2 = 2.35e6. Against CG6287 [DRSC27507], the entry reads firefly reporter light, replicate 1 = 6.08e5; firefly reporter light, replicate 2 = 4.68e5; Renilla control light, replicate 1 = 8.32e5; Renilla control light, replicate 2 = 6.92e5.

2 entries from above, set out differently.
{"Target gene":"Tcs4","DRSC id":"DRSC28855","firefly reporter light, replicate 1":4.27e5,"firefly reporter light, replicate 2":2.80e5,"Renilla control light, replicate 1":9.86e5,"Renilla control light, replicate 2":7.39e5}
{"Target gene":"CG11149","DRSC id":"DRSC02130","firefly reporter light, replicate 1":1.07e5,"firefly reporter light, replicate 2":1.93e5,"Renilla control light, replicate 1":7.99e5,"Renilla control light, replicate 2":7.24e5}
